This note sets out measurements from article PMC7862700.

Protein sequences, listed by entry. Tags and fused reporters are not part of them. Lines headed by an entry give the natural chain unless they say otherwise; changes in a name come on top.
UniProt Q01892: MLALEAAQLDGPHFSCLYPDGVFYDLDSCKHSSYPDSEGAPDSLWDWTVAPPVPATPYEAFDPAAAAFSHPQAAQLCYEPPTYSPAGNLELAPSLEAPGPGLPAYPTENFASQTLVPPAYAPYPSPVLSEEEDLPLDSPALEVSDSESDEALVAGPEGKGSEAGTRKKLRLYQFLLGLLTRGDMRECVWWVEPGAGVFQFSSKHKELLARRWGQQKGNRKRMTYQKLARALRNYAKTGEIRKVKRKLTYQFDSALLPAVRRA
UniProt Q99607: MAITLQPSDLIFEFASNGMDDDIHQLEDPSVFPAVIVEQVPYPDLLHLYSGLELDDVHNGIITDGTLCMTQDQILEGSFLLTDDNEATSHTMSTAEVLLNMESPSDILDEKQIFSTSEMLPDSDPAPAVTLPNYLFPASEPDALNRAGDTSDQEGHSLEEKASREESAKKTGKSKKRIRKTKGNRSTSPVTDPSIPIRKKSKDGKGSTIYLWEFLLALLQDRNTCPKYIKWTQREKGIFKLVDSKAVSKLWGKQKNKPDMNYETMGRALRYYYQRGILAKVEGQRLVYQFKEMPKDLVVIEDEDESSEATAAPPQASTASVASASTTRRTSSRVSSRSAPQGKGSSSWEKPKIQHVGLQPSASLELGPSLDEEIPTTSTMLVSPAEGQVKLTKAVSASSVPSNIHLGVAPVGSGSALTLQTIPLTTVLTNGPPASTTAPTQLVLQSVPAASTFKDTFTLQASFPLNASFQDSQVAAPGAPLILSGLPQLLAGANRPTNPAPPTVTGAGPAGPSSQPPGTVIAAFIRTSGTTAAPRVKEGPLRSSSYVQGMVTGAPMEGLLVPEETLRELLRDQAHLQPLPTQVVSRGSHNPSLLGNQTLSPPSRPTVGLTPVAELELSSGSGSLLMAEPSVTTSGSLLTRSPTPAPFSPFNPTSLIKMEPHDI

The list shows a part of the results, in another mix than the full data. At the low end of the ranking, values are background and their order means little.

What all share (test): DAPPL (digital affinity profiling via proximity ligation, sequencing)
Conditions in all cases: 10 mM Tris-HCl pH 7.5, 50 mM NaCl, 1 mM DTT, 4% glycerol, room temperature, 30 min; GST-TFs on glutathione beads, 16-mer random dsDNA library, 0.1% …; high values mean tight binding; double strand, one strand shown; scale: fold enrichment (6-mer frequency, TF over GST control)

One assay has as its target T1, FLI1 (UniProt Q01543).
T1 sequence: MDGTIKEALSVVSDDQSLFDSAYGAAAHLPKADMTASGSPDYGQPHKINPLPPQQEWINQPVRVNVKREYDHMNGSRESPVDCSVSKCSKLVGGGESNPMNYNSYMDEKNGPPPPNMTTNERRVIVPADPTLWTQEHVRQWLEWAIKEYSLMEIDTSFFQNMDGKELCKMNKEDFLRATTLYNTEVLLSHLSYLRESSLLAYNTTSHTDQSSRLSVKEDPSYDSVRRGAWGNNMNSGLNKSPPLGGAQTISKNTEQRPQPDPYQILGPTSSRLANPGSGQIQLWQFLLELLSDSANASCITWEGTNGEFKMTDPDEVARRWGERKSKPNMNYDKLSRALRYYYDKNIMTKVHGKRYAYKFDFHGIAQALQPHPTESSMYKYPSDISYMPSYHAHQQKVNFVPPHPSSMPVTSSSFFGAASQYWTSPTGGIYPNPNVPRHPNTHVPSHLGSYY

The next assay deals with T2, EHF (UniProt Q9NZC4).
T2 sequence: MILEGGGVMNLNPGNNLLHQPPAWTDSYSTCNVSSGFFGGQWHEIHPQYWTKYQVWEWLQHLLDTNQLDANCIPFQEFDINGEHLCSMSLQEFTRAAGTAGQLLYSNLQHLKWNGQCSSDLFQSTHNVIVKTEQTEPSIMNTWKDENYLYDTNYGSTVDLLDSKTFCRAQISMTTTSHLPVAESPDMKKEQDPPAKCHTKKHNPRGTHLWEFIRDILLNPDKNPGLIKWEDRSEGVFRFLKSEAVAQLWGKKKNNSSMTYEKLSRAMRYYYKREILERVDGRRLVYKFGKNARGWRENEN

The next assay has as its target SPIB (UniProt Q01892).
The target of another assay is ELF4 (UniProt Q99607).
The next assay concerns the target T3, ETV2 (UniProt O00321).
T3 sequence: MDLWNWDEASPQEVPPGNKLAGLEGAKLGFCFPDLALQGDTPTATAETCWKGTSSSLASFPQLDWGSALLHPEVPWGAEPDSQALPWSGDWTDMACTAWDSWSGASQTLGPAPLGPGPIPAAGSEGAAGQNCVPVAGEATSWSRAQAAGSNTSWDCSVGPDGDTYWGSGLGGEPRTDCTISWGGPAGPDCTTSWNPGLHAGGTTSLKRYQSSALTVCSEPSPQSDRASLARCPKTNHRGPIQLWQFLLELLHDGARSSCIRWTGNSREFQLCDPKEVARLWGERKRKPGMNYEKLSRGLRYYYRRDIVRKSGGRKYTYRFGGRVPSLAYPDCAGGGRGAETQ

Another assay deals with T4, ETV3L (UniProt Q6ZN32).
T4 sequence: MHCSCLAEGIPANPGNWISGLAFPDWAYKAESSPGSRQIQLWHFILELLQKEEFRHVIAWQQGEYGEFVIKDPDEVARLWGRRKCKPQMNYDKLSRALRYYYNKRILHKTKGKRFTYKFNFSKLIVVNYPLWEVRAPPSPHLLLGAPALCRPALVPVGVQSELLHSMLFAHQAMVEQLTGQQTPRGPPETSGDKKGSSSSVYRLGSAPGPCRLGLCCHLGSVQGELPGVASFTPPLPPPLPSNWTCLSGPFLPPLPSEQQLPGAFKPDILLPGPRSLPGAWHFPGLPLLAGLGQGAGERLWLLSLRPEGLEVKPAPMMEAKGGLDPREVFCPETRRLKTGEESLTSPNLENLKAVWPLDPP

Regarding TATCAA, the binding signal stood at 1.1 with FLI1, 0.996 with EHF and 0.988 with SPIB.

With GATCCC, the binding signal with FLI1 came out at 1.16; with EHF, 1.17.

On to GCAATC, for which the binding signal worked out at 0.972 with FLI1 and 0.968 with EHF.

As for GGAAAA, the binding signal with FLI1 was determined as 1.16; with EHF, 1.38.

On to TCCGCT, for which the binding signal with FLI1 came to 2.39; with EHF, 2.33; with SPIB, 2.37.

Take ATCCTC: the binding signal with FLI1 was found to be 1.48; with SPIB, 1.41.

Consider GTTTGA, for which the binding signal in the assay with FLI1 turned out to be 1.29; in the assay with EHF, 1.06; with SPIB, 1.16.

In the case of TAGCTT, the binding signal with FLI1 was 1.18; in the assay with EHF it was 1.21.

As to CACAGC, the binding signal was found to be 0.989 with FLI1, 1.02 with EHF and 1.05 in the assay with SPIB.

Turning to GTAAAT, the binding signal in the assay with FLI1 came to 1.02; with EHF it was 1.15.

For TAGGGC, the binding signal with FLI1 was determined as 0.868; with SPIB, 0.982.

With ACATGT, the binding signal with FLI1 worked out at 1.23; in the assay with SPIB it was 1.15.

As for AATGCG, the binding signal worked out at 1.24 in the assay with FLI1 and 1.31 with SPIB.

As to TCTATG, the binding signal in the assay with FLI1 and with SPIB was 1.12 in each case.

With TCCTGG, the binding signal with FLI1 and with EHF was 1.66 throughout.

AGCACA: the figures for the binding signal in the assay with FLI1, with EHF and with SPIB were 0.984, 1.04 and 0.996, respectively.

As for GTGACC, the binding signal with FLI1 was 1.29; in the assay with SPIB, 1.24.

As to AGCTTA, the binding signal with FLI1 turned out to be 1.06; with EHF, 1.1.

Take GCACGC: the binding signal came to 1.03 with FLI1, 1.15 with EHF and 1.19 in the assay with SPIB.

CACTGT: the binding signal in the assay with FLI1 was 1.12; with SPIB, 1.22.

Consider TTGTGT, for which the binding signal with FLI1 and in the assay with SPIB was 1.25 each time.

As for CTGGCT, the binding signal with FLI1 was determined as 1.33; in the assay with EHF it was 1.26.

As to ACGATG, the binding signal with FLI1 turned out to be 1.24; with SPIB, 1.18.

In the case of TGTCTG, the results for the binding signal with FLI1, with EHF and with SPIB were 1, 0.989 and 1.16, respectively.

Consider TCCTTC, for which the binding signal with FLI1 worked out at 2.2; in the assay with SPIB, 2.16.

Regarding TCCCAT, the binding signal in the assay with FLI1 is 1.36; in the assay with SPIB, 1.48.

As to ACGTAA, the binding signal in the assay with FLI1 turned out to be 1.07; in the assay with SPIB it was 0.944.

Take AAGGGC: the binding signal with FLI1 was found to be 1.06; in the assay with EHF it was 1.01; in the assay with SPIB, 0.912.

For TTCTAC, the binding signal is 1.39 with FLI1 and 1.49 in the assay with EHF.

Consider AGCACT, for which the values for the binding signal with FLI1 and in the assay with EHF were 1.38 and 1.36, respectively.

As for CTGAAG, the results for the binding signal in the assay with FLI1 and with SPIB were 1.02 and 1.04, respectively.

As for AAAGCC, the binding signal amounted to 0.935 in the assay with EHF; 1 with SPIB; 0.944 with ELF4; 0.993 in the assay with ETV2; 0.98 with ETV3L.

Take ACCTCT: the results for the binding signal with ELF4, with ETV2 and with ETV3L were 1.33, 1.35 and 1.32, respectively.

With TTTGTC, the binding signal with ELF4 was 1.18; with ETV2, 1.16; with ETV3L it was 1.32.

On to CACCAC, for which the binding signal was found to be 1.11 with EHF, 1.13 in the assay with ELF4, 1.14 in the assay with ETV2 and 1.19 with ETV3L.

Turning to CTTCCA, the binding signal with ELF4 is 1.33; with ETV2 it was 1.37.

Take AAGTTG: the binding signal in the assay with EHF was found to be 1.14; with ELF4 it was 1.14; in the assay with ETV2, 0.838.

As to GCAATA, the binding signal came to 0.975 with SPIB, 1.07 with ELF4, 1.01 in the assay with ETV2 and 0.951 in the assay with ETV3L.

As for CGTCCA, the binding signal was 1.02 with EHF, 0.974 in the assay with ELF4 and 0.983 with ETV2.

On to TACCAT, for which the binding signal in the assay with EHF is 1.11; with ELF4, 1.22; with ETV2, 1.15.

In the case of GTTGTA, the binding signal in the assay with EHF was found to be 0.997; in the assay with SPIB, 0.96; with ELF4, 0.997; in the assay with ETV2, 0.989.

TCCATG: the binding signal with EHF turned out to be 1.17; with ELF4, 1.16; with ETV2, 1.2.

Consider CAACCG, for which the binding signal was determined as 0.995 in the assay with ELF4 and 1.08 with ETV2.

Take CTATGG: the binding signal with EHF is 1.3; with ELF4, 1.15; with ETV2, 1.28; with ETV3L, 1.16.

For GGGTTC, the binding signal in the assay with ELF4 was 1.12; with ETV2, 0.992.

In the case of TGGTGG, the binding signal with EHF was determined as 0.948; with ELF4 it was 0.927; with ETV2, 1.03; in the assay with ETV3L, 0.95.

Consider TCAAAC, for which the binding signal with ELF4 stood at 1.21; with ETV2, 1.3.

Consider GCTAGC, for which the binding signal is 1.19 in the assay with EHF, 1.3 with ELF4 and 1.39 in the assay with ETV2.
